In patent US20250312451A1:
No constants are given. Whether binding was seen depends on the method and setting. Some results given as binding are weak or reduced against the parent protein; the word gives no strength. For some assays here: Where a sequence is shown, tags or fusion partners need not be part of it.

By UniProt entry, the sequences of proteins in these tests, tags left out. Residues count along the entry.
UniProt P20138, residues 18-259: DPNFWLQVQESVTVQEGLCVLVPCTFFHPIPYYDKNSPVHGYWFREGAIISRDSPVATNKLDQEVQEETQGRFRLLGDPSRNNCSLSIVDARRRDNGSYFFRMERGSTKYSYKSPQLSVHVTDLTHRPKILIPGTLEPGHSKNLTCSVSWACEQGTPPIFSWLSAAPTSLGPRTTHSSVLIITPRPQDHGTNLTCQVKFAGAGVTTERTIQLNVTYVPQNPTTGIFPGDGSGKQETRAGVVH

Tests used:
[1] = target: T1, recombinant CLL1-Fc fusion (UniProt Q5QGZ9); test: flow cytometry; transduced T cells stained with recombinant CLL1-Fc fusion
T1 sequence (looked up): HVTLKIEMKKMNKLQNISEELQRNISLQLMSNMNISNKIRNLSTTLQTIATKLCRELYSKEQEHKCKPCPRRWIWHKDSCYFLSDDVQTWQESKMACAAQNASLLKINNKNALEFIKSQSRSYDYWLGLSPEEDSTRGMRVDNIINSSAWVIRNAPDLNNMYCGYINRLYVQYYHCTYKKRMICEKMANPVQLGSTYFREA

[2] = target: recombinant CD33-Fc fusion (UniProt P20138); test: flow cytometry; transduced T cells stained with recombinant CD33-Fc fusion

B1: SR006 targeting component (antiCLL1.G4S.FRB.2xG4S.antiCD33.minCD4hinge.CD4tm.CD4ic), on transduced T cells (receptor)
chain: EVQLVESGGGEVQPGGSLRLSCAASGFLFSIYDMNWYRQAPGKEREWVAGITNNGYSTAYAESVKGRFTISRDNAKNTIYLQMSSLRAEDTAVYYCHADLTKAYDVEYAWGQGTLVTVKPGGGGSLWHEMWHEGLEEASRLYFGERNVKGMFEVLEPLHAMMERGPQTLKETSFNQAYGRDLMEAQEWCRKYMKSGNVKDLTQAWDLYYHVFRRISKGGGGSGGGGSEVQLVESGGGEVQPGGSLRLSCAASRSSGIDVMGWYRQAPGKERELVAEISGVGDTNYAASLADRFTVSRDNAKNTVYLQMSSLRAEDTAVYYCNAHSFLDLVGAWGQGTLVTVKPSNIKVLPTWSTPVQPMALIVLGGVAGLLLFIGLGIFFCVRCRHRRRQ
[1]
  binding: binds
[2]
  binding: binds
